{
  "source": "patent US20210299038A1",
  "about": "“METHOD TO PREVENT AND TREAT OCULAR CATARACT BY CALCIUM CHANNEL BLOCKERS, ANGIOTENSIN CONVERTING ENZYME INHIBITORS, AND ANGIOTENSIN RECEPTOR BLOCKERS” (priority 2018, published 2021)",
  "key": {"[1]": {"test_system": "ocular cataract", "assay": "Prevention of recurrence of ocular cataract in a successfully treated patient, one eye treated, other eye untreated", "format": "in vivo, human", "conditions": "untreated eye shows recurrence", "from_the_text": "A composition comprising the calcium channel blocker nifedipine is directly applied to the vitreous surface of one eye while the other eye is left untreated. […] A composition comprising the ACE inhibitor enalapril is directly applied to the vitreous surface of one eye while the other eye is left untreated. […] A composition comprising the angiotensin receptor blocker losartan is directly applied to the vitreous surface of one eye while the other eye is left untreated. […] A composition comprising the calcium channel blocker nifedipine is applied to the eye by intravitreal or intraocular injection while the other eye is left untreated. […] A composition comprising the ACE inhibitor enalapril is applied to the eye by intravitreal or intraocular injection while the other eye is left untreated. […] A composition comprising the angiotensin receptor blocker losartan is applied to the eye by intravitreal or intraocular injection while the other eye is left untreated."}, "[2]": {"test_system": "ocular cataract", "assay": "Treatment of a patient diagnosed with ocular cataract, one eye treated, other eye untreated", "format": "in vivo, human", "from_the_text": "A patient is diagnosed with ocular cataract. A composition comprising the calcium channel blocker nifedipine is directly applied to the vitreous surface of one eye while the other eye is left untreated. […] A patient is diagnosed with ocular cataract. A composition comprising the ACE inhibitor enalapril is directly applied to the vitreous surface of one eye while the other eye is left untreated. […] A patient is diagnosed with ocular cataract. A composition comprising the angiotensin receptor blocker losartan is directly applied to the vitreous surface of one eye while the other eye is left untreated. […] A patient is diagnosed with ocular cataract. A composition comprising the calcium channel blocker nifedipine is applied to the eye by intravitreal or intraocular injection while the other eye is left untreated. […] A patient is diagnosed with ocular cataract. A composition comprising the ACE inhibitor enalapril is applied to the eye by intravitreal or intraocular injection while the other eye is left untreated. […] A patient is diagnosed with ocular cataract. A composition comprising the angiotensin receptor blocker losartan is applied to the eye by intravitreal or intraocular injection while the other eye is left untreated."}, "[3]": {"conditions": "composition applied by intravitreal or intraocular injection"}, "[4]": {"conditions": "composition directly applied to the vitreous surface of one eye"}},
  "note": "For at least one compound, name, drawing or mass did not settle the structure.",
  "data": [
    {"smiles": "COC(=O)C1=C(C)NC(C)=C(C(=O)OC)C1c1ccccc1[N+](=O)[O-]", "note": "[nifedipine]", "values": [
      {"measurement": "development (recurrence) of ocular cataract in treated eye", "setting": "[1]; [3]", "value": "not develop ocular cataract"},
      {"measurement": "development (recurrence) of ocular cataract in treated eye", "setting": "[1]; [4]", "value": "not develop ocular cataract"},
      {"measurement": "symptoms of ocular cataract in treated eye versus untreated eye", "setting": "[2]; [3]", "value": "reduced symptoms of ocular cataract"},
      {"measurement": "symptoms of ocular cataract in treated eye versus untreated eye", "setting": "[2]; [4]", "value": "reduced symptoms of ocular cataract"}
    ]}
  ]
}
